Data reported in PubChem BioAssay AID624297 (National Center for Advancing Translational Sciences (NCATS), 2012).
Screen size: about 340,000 compounds; about 6,200 (1.8%) were called active. The inconclusive results got no clear call from the source; some entries with a clear call stand among them for comparison. The call rests on the fitted dose curve; in most records, active means well fitted activation curve with a large enough effect; inconclusive means small, poorly fitted or top-dose-only effect; inactive means no such curve, though single readings can be large or run the other way. Potencies beside an inconclusive call are fits to weak or partial responses and may not hold up.

test: A quantitative high throughput screen for small molecules that induce DNA re-replication in SW480 colon adenocarcinoma cells.; further: nearly all actives have a fitted effect of over 55% in size; on re-replication activation: % of control where 0% means no effect; settings: Hoechst DNA content imaging, 48 h; re-replication activation: at 46.1 µM (top of the series) unless noted
How it was run: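 Image-based read-out: total Hoechst fluorescence of nuclei (405 nm excitation, 500-530 nm emission), with hits raising the fraction of high-intensity nuclei. SW480 colon cells incubated 48 hr with compounds at 37 C.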
Potency means the concentration at half of the fitted maximal effect.

SMILES | Potency | re-replication activation
Cc1ccc(S(=O)(=O)Nc2cc(C(F)(F)F)ccc2N2CCOCC2)cc1 | inconclusive: 29.1 µM [activator, single point] | –
c1ccc2c(c1)OC(CCCN1CCCCC1)c1ccccc1S2 (stereo not drawn) | inconclusive: 25.1 µM [activator, single point] | –
Cc1ccc(S(=O)(=O)NC(=O)COc2ccccc2)cc1 | – | inactive: -77.9% [at 1.84 µM]
CCOC(=O)C1=C(CN2CCc3ccccc32)NC(=O)NC1c1cccc([N+](=O)[O-])c1 (stereo not drawn) | inconclusive: 25.9 µM [activator, single point] | –
Cc1cc(C(=O)OCC(=O)NC(=O)c2cccn2C)c2ccccc2n1 | – | inactive: 3.73%
CN1C(=O)C2(CCCCC2)C1c1ccccc1 (stereo not drawn) | inconclusive: 0.651 µM [activator, single point] | –
CSc1cccc(NC(=O)CCc2ccccc2)c1 | inconclusive: 0.92 µM [activator, partial curve, poor fit] | –
COc1ccc(OC)c(NC(=O)CSc2ncnc3c2cnn3-c2ccccc2Cl)c1 | – | inactive: 3.68%
Cc1oc2c(cc(NS(=O)(=O)c3ccc(C(C)C)cc3)c3ccccc32)c1C(=O)O | inconclusive: 16.4 µM [activator, single point] | –
OCCOC[C@H]1O[C@H](OCCO)[C@H](OCCO)[C@@H](OCCO)[C@@H]1OCCO (tested in a mixture with another compound) | – | inactive: -4.01%
Cc1noc(C)c1NC(=O)Nc1cccc2c1O[C@H](CN(C)C(=O)NC(C)C)[C@@H](C)CN([C@H](C)CO)C2=O | – | inactive: -9.89%
COc1cccc(C2NC(=O)NC(C)=C2C(=O)OCC2CCCCC2)c1 (stereo not drawn) | – | inactive: -7.38%
Cc1ccc(-n2c(C)cc(/C=c3/sc4nc5ccccc5n4c3=O)c2C)cc1 | – | inactive: 1.13% [at 9.22 µM]
CCS(=O)(=O)c1ncc(Cl)c(C(=O)Nc2ccc(S(=O)(=O)N3CCC(C)CC3)cc2)n1 | inconclusive: 9.2 µM [activator, partial curve, poor fit] | –
Cc1ccc(-c2onc3ccc(C(=O)/C=C/N(C)C)cc23)cc1 | inconclusive: 10.3 µM [activator, partial curve, poor fit] | –
CCN(CC)C(=O)COc1ccc(/C=N/NC(=O)c2cc(-c3ccccc3OC)nc3ccccc23)cc1OC | inconclusive: 6.51 µM [activator, partial curve, poor fit] | –
CN(/N=C/c1ccc2c(c1)OCO2)c1nc(N2CCOCC2)nc(N2CCOCC2)n1 | inconclusive: 6.51 µM [activator, single point] | –
CC[N+]1=CN(c2ccccc2)C(C)=CC1(C)C | inconclusive: 29.1 µM [activator, partial curve, poor fit] | –
O=C(NNc1ncc(C(F)(F)F)cc1Cl)c1c(Cl)cccc1Cl | inconclusive: 6.51 µM [activator, single point] | –
CCOC(=O)N/N=C/c1ccc(OCCSc2ccc(Cl)cc2)c(OCC)c1 | inconclusive: 13 µM [activator, partial curve, poor fit] | –
COCCN(C(=O)COC(=O)c1oc2ccc(OC)cc2c1C)c1c(N)n(Cc2ccccc2)c(=O)[nH]c1=O | inconclusive: 18.4 µM [activator, partial curve, poor fit] | –
Cc1cc(C(=O)NCC(=O)OC(C)C(=O)N2CCOCC2)ccc1[N+](=O)[O-] (stereo not drawn) | inconclusive: 23.1 µM [activator, single point] | –

Three records drawn at random from the list so far, as already listed:
SMILES | Potency | re-replication activation
OCCOC[C@H]1O[C@H](OCCO)[C@H](OCCO)[C@@H](OCCO)[C@@H]1OCCO (tested in a mixture with another compound) | – | inactive: -4.01%
Cc1cc(C(=O)OCC(=O)NC(=O)c2cccn2C)c2ccccc2n1 | – | inactive: 3.73%
COCCN(C(=O)COC(=O)c1oc2ccc(OC)cc2c1C)c1c(N)n(Cc2ccccc2)c(=O)[nH]c1=O | inconclusive: 18.4 µM [activator, partial curve, poor fit] | –

(list continues)

SMILES | Potency | re-replication activation
CC(C)(C)c1ccc(C(=O)Nc2ccccc2Cl)cc1 | inconclusive: 16.4 µM [activator, single point] | –
Cc1ccc(N2C(=O)NC(NS(=O)(=O)c3ccccc3)(C(F)(F)F)C2=O)cc1C (stereo not drawn) | – | inactive: 1.43%
COc1ccc(OC)c(N(CC(=O)NCCSCc2ccc(C)cc2)S(C)(=O)=O)c1 | inconclusive: 0.411 µM [activator, full curve, poor fit] | –
CCc1ccc2[nH]c(=O)c(CN(CCN(C)C)C(=S)NCc3ccco3)cc2c1 | – | inactive: -4.31%
Cc1ccccc1/[N+]([O-])=C/c1cccs1 | inconclusive: 23.1 µM [activator, single point] | –
C=CCNCC(=O)N1N=C(c2ccc3ccccc3c2)CC1c1ccc(OC)cc1 (stereo not drawn) | inconclusive: 20.6 µM [activator, partial curve, poor fit] | –
COc1ccc(N2CC(C(=O)Nc3nc4ccc(S(C)(=O)=O)cc4s3)CC2=O)cc1 (stereo not drawn) | – | inactive: 3.02%
CC(=O)c1cc(NC(=O)c2ccc(C)cc2)c(=O)oc1C | inconclusive: 29.1 µM [activator, single point] | –
CCc1ccc(Nc2nnc(SCC(=O)NC(=O)c3cccn3C)s2)cc1 | inconclusive: 18.4 µM [activator, single point] | –
Cc1ccccc1NC(=O)/C(C#N)=C\c1cn(CC(=O)O)c2ccccc12 | inconclusive: 18.4 µM [activator, partial curve] | –
CC(=O)c1ccc(-c2nc3ccccc3n2C)o1 | – | inactive: -1.53%
COc1ccccc1-c1c(C)nn2c(NCCN3CCCC3)cc(C)nc12 | – | inactive: 1.78%
O=S(=O)(c1ccc2ncn(O)c2c1)N1CCOCC1 | inconclusive: 1.46 µM [activator, full curve, poor fit] | –
Cc1ccc(/C=C2/Sc3ccc(C(=O)NCc4ccccn4)cc3NC2=O)cc1 | inconclusive: 23.1 µM [activator, single point] | –
CCc1cccc(C)c1NC(=O)COC(=O)CNC(=O)c1cccs1 | inconclusive: 7.31 µM [activator, partial curve, poor fit] | –
O=C(CSCC(=O)N1CCN(c2ccccc2)CC1)Nc1nc(-c2ccc(Cl)s2)cs1 | – | inactive: -1.81%
COc1cc(OC)cc(C(=O)NN2CCOCC2)c1 | – | inactive: 15.3%
Cc1cc(C(=O)NNc2ccc(F)cc2)no1 | – | inactive: -9.19%
O=C(NN=Cc1ccccc1O)C1CC1 | inconclusive: 29.1 µM [activator, single point] | –
COc1cc(SSc2cc(OC)cc([N+](=O)[O-])c2N)c(N)c([N+](=O)[O-])c1 | – | inactive: 28.3%
COc1ccc(C)cc1S(=O)(=O)n1cnc2ccccc21 | inconclusive: 14.6 µM [activator, partial curve] | –
